For at least one compound, name, drawing or mass did not settle the structure.
Legend:
[1] = tested on: TLR3 ligand poly IC induced IP-10; assay: Poly IC induced IP-10 production in human macrophages (ELISA); format: cell-based; settings: 5 μg/ml, poly IC for 6 hours
Protocol: (§1) Macrophages or RA synovial membrane cell cultures were stimulated with 10 ng/ml chloroform-extracted LPS, 10 ng/ml Pam3, 10 ng/ml Flagellin, 10 ng/ml Malp-2, 20 μg/ml poly IC, 2 μM CpG (human/mouse) or 1 μg/ml R-848 in complete media for 6 h. Supernatants from RA cultures were harvested after 24 hours. All reagents other than LPS were free from LPS contamination as assessed using the limulus amebocyte lysate (LAL) assay from Cambrex (USA).
Sandwich ELISAs were employed to measure TNF, (Pharmingen, UK). IP-10 (R&D, USA) and IL-1β (Bioscource. USA). Absorbance was read on a spectrophotometric ELISA plate reader (Labsystems Multiscan Biochromic) and analyzed using Ascent software V2.6 (Thermo Labsystems, Cambridge, United Kingdom). All results are expressed as the mean cytokine concentration±SD obtained from triplicate cultures per condition. […]
Primary human macrophages were incubated with 5 μg/ml of GBR12909, 5 μg/ml of clotrimazole, 5 μg/ml of Propidium iodide (PI), 30 μg/ml mianserine hydrochloride and 30 μg/ml promazine hydrochloride for 30 minutes and then stimulated for 6 hours with the TLR4 ligand LPS (FIG. 7A), with R848 a TLR7/8 ligand (FIG. 7, Graph B), or with poly IC a TLR3 ligand (FIG. 7C). Supernatants were collected and measured for TNF or IP-10.

[2] = tested on: RA synovial membrane cultures; assay: Spontaneous cytokine release from RA synovial membrane cultures (ELISA); format: cell-based, human; settings: 24 hours
[3] = tested on: TLR4 ligand LPS induced TNF; assay: LPS induced TNF production in primary human macrophages (ELISA); format: cell-based; settings: 5 μg/ml, 30 minutes preincubation, LPS for 6 hours
Protocol: as §1
(§2) Sandwich ELISAs were employed to measure TNF, (Pharmingen, UK). IP-10 (R&D, USA) and IL-1β (Bioscource. USA). Absorbance was read on a spectrophotometric ELISA plate reader (Labsystems Multiscan Biochromic) and analyzed using Ascent software V2.6 (Thermo Labsystems, Cambridge, United Kingdom). All results are expressed as the mean cytokine concentration±SD obtained from triplicate cultures per condition.
RA synovial membrane cells were isolated from patients undergoing joint replacement surgery as previously described (Foxwell et al., Proc. Natl. Acad. Sci. USA 95, 8211-8215, 1998). All patients gave written informed consent and the study was approved by the local ethics committee. Immediately after isolation, cells were used for mRNA analysis, stained by FACS or cultured at 1×10^5 cells/well in 96-well tissue culture plates (Falcon, UK) in RPMI 1640 containing 10% (v/v) FBS and 100 U/ml penicillin/streptomycin. […]

[4] = tested on: TLR7/8 ligand R-848 induced TNF; assay: R-848 induced TNF production in primary human macrophages (ELISA); settings: 30 minutes preincubation, 1 μg/ml R-848 for 6 hours
[5] = tested on: RA synovial membrane cultures; assay: Spontaneous cytokine release from RA synovial membrane cultures (ELISA); format: cell-based, human; settings: 5, 10 or 20 μg/ml, 24 hours
Protocol: as §1, with “hours.” for “hours. All reagents other than LPS were free from LPS contamination as assessed using the limulus amebocyte lysate (LAL) assay from Cambrex (USA).”
as §2
RA synovial membrane cells were isolated from patients undergoing joint replacement surgery as previously described (Foxwell et al., Proc. Natl. Acad. Sci. USA 95, 8211-8215, 1998). All patients gave written informed consent and the study was approved by the local ethics committee. […]
Rheumatoid arthritis synovial membrane cells were cultured for 24 hours in the presence of media alone or media containing 30 μg/ml mianserine hydrochloride. Supernatants were harvested and levels of cytokines (A) TNF (n=16) were measured by ELISA. […]

For `Fc1ccc(C(OCCN2CCN(CCCc3ccccc3)CC2)c2ccc(F)cc2)cc1` [GBR12909], which “inhibition of Poly IC induced IP-10 production” value [1] is on record?
The value was “able to inhibit”.

And the “inhibition of spontaneous TNF production” value ([2]; 5 μg/ml)?
Its value is “did not lead to a significant decrease”.

What about the “inhibition of LPS induced TNF production” value [3] of the same compound?
The value was “None of the drugs tested were able to inhibit”.

And the “inhibition of R-848 induced TNF production” value ([4]; 5 μg/ml)?
The value was “only the serotonin receptor antagonists (mianserine hydrochloride and promazine hydrochloride) were able to suppress”.

`CN1CCN(C2=Nc3ccccc3Oc3ccc(Cl)cc32)CC1` [loxapine] was tested. Which “inhibition of spontaneous TNF production” value ([2]; 20 μg/ml) did it give?
Its value is “able to inhibit”.

What about the “inhibition of R-848 induced TNF production” value ([4]; 20 μg/ml) of the same compound?
Its value is “able to inhibit”.

How did the “inhibition of spontaneous TNF production” value [5] turn out when `CCC(C)(C)C(=O)O[C@H]1C[C@@H](C)C=C2C=C[C@H](C)[C@H](CC[C@@H]3C[C@@H](O)CC(=O)O3)[C@H]21` [simvastatin] was run?
Its value is “able to inhibit”.

Reference: patent US20100273750A1, “SEROTONIN RECEPTOR ANTAGONISTS FOR TREATING ARTHRITIS” (IMPERIAL INNOVATIONS LIMITED, priority 2007, published 2010)
